Results from PubChem BioAssay AID493014 (National Center for Advancing Translational Sciences (NCATS), 2011).
About 170 (0.05%) of roughly 340,000 compounds were called active. Inconclusive results, whose numbers are uncertain, are shown with a selection of clear calls. Calls come from the whole dose curve; as a rule, active = well fitted inhibition curve with a large enough effect in the signal ratio, with a control signal flat (not every such curve was filed as active); inconclusive = small, poorly fitted or top-dose-only effect, or effect the other way, or a change in a side signal; inactive = flat fitted curve, though single readings scatter; the % refers to the signal ratio. Potencies of inconclusive entries are doubtful fits and often do not repeat.
Potency is the fitted concentration of half-maximal effect.

Assay: qHTS Assay to Find Inhibitors of Chronic Active B-Cell Receptor Signaling;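 for activity change, negative = inhibition: plate controls were basal doxycycline-induced cells for no effect and cells given 10 µM MG132 for full effect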
Conditions: ABC-DLBCL IkBa-CBG/CBR reporter, luminescence ratio (green luciferase fused to IkBa over red control in TMD8 lymphoma cells), 4 h; activity change, negative = inhibition: at 46.1 µM (top of the series)
How it was run: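 TMD8 human ABC-DLBCL cells with doxycycline-inducible IκBα–green luciferase fusion and unfused red luciferase, in 0.5% FBS medium; compounds up to 46 uM, 4 h at 37C. Green/red luminescence ratio, filter-overlap corrected, fitted to concentration-response curves.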
With `CC(=Nc1cccc(O)c1)c1sc2ccccc2c1O` the activity change, negative = inhibition was inconclusive: 5.03%.
For `COc1ccc(Nc2cc(=O)oc3ccccc23)cc1`, the Potency was inconclusive: 9.2 µM [falling, partial curve, poor fit].
For `O=C(C1COc2ccccc2O1)N1CCN(c2ccc([N+](=O)[O-])cc2)CC1` (stereo unspecified), the “activity change, negative = inhibition” value was inactive: 0.223%.
In the case of `CCOC(=O)CSc1ncc(-c2cccc(Cl)c2)cn1`, the Potency is reported as inconclusive: 8.91 µM [rising, partial curve, poor fit].
For `CCCn1nc(C(=O)OCC(=O)c2ccc3c(c2)NC(=O)CO3)c2ccccc2c1=O`, the “activity change, negative = inhibition” value was inactive: -3.02%.
For `CCOC(=O)c1cc(COc2cc(Cl)cc(Cl)c2)on1`, the “activity change, negative = inhibition” value was inactive: -2.46%.
For `O=C1c2cccnc2C(=O)N1c1cccc(-c2nc3ccccc3o2)c1`, the activity change, negative = inhibition was inconclusive: 1.95%.
With `COc1ccc(Cc2nc3ccccc3n2C)cc1` the Potency was inconclusive: 6.31 µM [falling, single point].
For `C=CC[C@H](CC(=O)NCCO)C(=O)N[C@H](COC(=O)[C@@H](CC=C)Cc1ccc(F)cc1)Cc1ccccc1`, the activity change, negative = inhibition was inconclusive: -11.4%.
With `CNc1ccccc1C(=O)OCC(=O)c1ccccc1` the Potency was inconclusive: 20.6 µM [falling, single point].
In the case of `CCOCCn1ccc2c(OCC(=O)NCCc3ccc(OC)c(OC)c3)cccc2c1=O`, the Potency is reported as inconclusive: 2.59 µM [falling, partial curve, poor fit].
For `Cc1ccc(NC(=O)c2ccc(Cl)c(NC(=O)c3cccs3)c2)cc1`, the activity change, negative = inhibition was inconclusive: 3.46%.
In the case of `COc1ccc(/C=C/C(=O)O/N=C(\N)c2ccccn2)cc1OC`, the activity change, negative = inhibition is reported as inconclusive: -10.6%.
For `Cc1ccc(/C=C2\OC(=O)c3ccccc32)cc1`, the activity change, negative = inhibition was inconclusive: 3.6%.
With `COc1ccccc1C1c2ccc3ccccc3c2Oc2ncn(CCN(C)C)c(=N)c21` (stereo unspecified) the Potency was inconclusive: 35.5 µM [falling, single point].
With `Cn1c(=O)c2c(nc(N3CCCCC3)n2C)n(C)c1=O` the “activity change, negative = inhibition” value was inactive: 15.4%.
With `N#C/C(=C\c1c(Oc2ccc(Cl)cc2)nc2ccccn2c1=O)C(=O)NC1CCS(=O)(=O)C1` (stereo unspecified) the Potency was inconclusive: 22.4 µM [falling, single point].
With `Cc1ccc2oc(-c3ccc(NC(=O)CC(C)C)cc3)nc2c1` the activity change, negative = inhibition was inconclusive: 6.2%.
In the case of `COc1cc2c3c(c1)C1(C(=O)N3C(C)(C)C=C2C)C(C#N)=C(N)Oc2cc(C)oc(=O)c21` (stereo unspecified), the activity change, negative = inhibition is reported as inconclusive: -10.1%.
For `CCN(CC)Cc1c(C(=O)N/N=C/c2ccco2)nnn1-c1nonc1N`, the activity change, negative = inhibition was inconclusive: -0.9%.
With `CC(=O)Nc1nc(C)c(-c2nc3ccc([N+](=O)[O-])cc3[nH]2)s1` the activity change, negative = inhibition was inconclusive: 5.78%.
In the case of `CC1Cc2nc(SCC(=O)N3CCN(c4ccccc4)CC3)n(C)c(=O)c2S1` (stereo unspecified), the “activity change, negative = inhibition” value is reported as inactive: 0.238%.
With `Cc1csc(SCC(=O)Nc2ncc(Cl)c(C)c2Cl)n1` the activity change, negative = inhibition was inconclusive: -1.02%.
With `c1ccc(OCc2nc(-c3ccncc3)no2)cc1` the activity change, negative = inhibition was inconclusive: -1.99%.
In the case of `Cc1c(CCO)c(=O)[nH]n1C(=O)c1c(F)cccc1F`, the Potency is reported as inconclusive: 4.11 µM [activator, partial curve].
For `CN(C)S(=O)(=O)c1ccc(Cl)c(NC(=O)COC(=O)c2cc(-c3ccccc3)nc3ccccc23)c1`, the activity change, negative = inhibition was inconclusive: 6.84%.
In the case of `Cc1nnc(N2C(=O)c3cccc4cccc(c34)C2=O)s1`, the activity change, negative = inhibition is reported as inconclusive: 16.4%.
In the case of `OC(CNCCc1ccc(C(F)(F)F)cc1)COC(c1ccccc1)c1ccccc1` (stereo unspecified), the Potency is reported as inconclusive: 35.5 µM [falling, partial curve, poor fit].
For `CCCN(C(=O)CCl)C1=CCCCC1`, the “activity change, negative = inhibition” value was inactive: 3.4%.
In the case of `Cc1cccc(CC2S/C(=N/N=C/c3ccco3)NC2=O)c1` (stereo unspecified), the activity change, negative = inhibition is reported as inconclusive: 5.39%.
In the case of `CC(C)(C)c1ccc(N2C(=O)Cc3c2nc(N)c(C#N)c3N)cc1`, the activity change, negative = inhibition is reported as inconclusive: -99.4%.
In the case of `C[C@@H]1COC(=O)[C@@H](Cc2ccc(F)cc2)C/C=C\C[C@@H](CC(=O)NCCO)C(=O)N1`, the “activity change, negative = inhibition” value is reported as inactive: -0.602%.
In the case of `N#CCC(=O)N1CC2(CC(c3cccc(NC(=O)COc4ccc(Cl)cc4)c3)=NO2)C[C@@H]1C(N)=O` (stereo partly specified), the “activity change, negative = inhibition” value is reported as inactive: -20.8%.
With `O=C(NNC(=S)NC(=O)c1cn(-c2ccccc2)nc1-c1ccccc1)c1ccncc1` the Potency was inconclusive: 14.1 µM [falling, single point].
With `COc1ccccc1N1CCN(C(=O)c2nn(-c3ccccc3OC)c(=O)c3ccccc23)CC1` the activity change, negative = inhibition was inconclusive: 2.1%.
For `Cc1nccn1Cc1cccc2ccccc12`, the activity change, negative = inhibition was inconclusive: 9.08%.
For `COc1ccc(CCNC(=O)CCn2c(=O)c3cccn3c3ccc(F)cc32)c(OC)c1OC`, the activity change, negative = inhibition was inconclusive: 2.36%.
In the case of `COc1ccccc1-c1nnc(SCC(=O)Nc2c(Cl)cccc2Cl)o1`, the activity change, negative = inhibition is reported as inconclusive: 2.18%.
For `COc1ccc(CCn2c(C)cc(C(=O)CN3C(=O)C(=O)N(Cc4ccco4)C3=O)c2C)cc1`, the “activity change, negative = inhibition” value was inactive: 9.23%.
With `Cc1nn2c(NCc3ccccn3)c3c(nc2c1-c1ccccc1)CCC3` the activity change, negative = inhibition was inconclusive: -8.19%.
For `C/C(NC(=O)c1ccccc1)=C1/C(=O)CC2C1C2(C)C` (stereo unspecified), the activity change, negative = inhibition was inconclusive: 6.5%.
In the case of `Cc1cc(C)nc(SCCC(=O)Nc2cccc3ccccc23)n1`, the Potency is reported as inconclusive: 7.08 µM [falling, full curve, poor fit].
In the case of `Clc1ccccc1-c1nnc(-c2ccc3c(c2)OCO3)o1`, the Potency is reported as inconclusive: 22.4 µM [falling, single point].
With `CCc1ncc(CN2CCC(C(=O)Nc3cccc(-c4cscn4)c3)CC2)cn1` the “activity change, negative = inhibition” value was inactive: -4.42%.
In the case of `CCCCNC(=O)/C(C#N)=C/c1ccc(F)cc1F`, the Potency is reported as inconclusive: 35.5 µM [falling, single point].
For `O=[N+]([O-])c1cccnc1Sc1n[nH]c(-c2ccc(Cl)cc2)n1`, the Potency was inconclusive: 22.4 µM [falling, partial curve].
In the case of `CCOC(=O)c1cnc2ccc(F)cc2c1Nc1ccc2c(c1)OCCO2`, the activity change, negative = inhibition is reported as inconclusive: 1.48%.
In the case of `CCOC(=O)C1CCN(C(=O)c2cc3cc4ccc(C)cc4nc3o2)CC1`, the activity change, negative = inhibition is reported as inconclusive: 275%.
For `CSc1nc(-c2ccccc2)nn1C(=O)c1ccccc1`, the “activity change, negative = inhibition” value was inactive: 1.2%.
For `CCN(CC)C(=O)C1CCCN(c2ccc([N+](=O)[O-])cc2[N+](=O)[O-])C1` (stereo unspecified), the activity change, negative = inhibition was inconclusive: 2.63%.
With `COc1ccc(Cn2c(C3CC3)nc3ccc(NC(=O)C4CC4)cc3c2=O)cc1` the “activity change, negative = inhibition” value was inactive: -5.54%.
